{
  "source": "the supplement of paper PMC8728848",
  "binders": {"B1": {"name": "CD4 (Rattus norvegicus), P05540 (protein)", "chain": "MCRGFSFRHLLPLLLLQLSKLLVVTQGSTSITAYKSEGESAEFSFPLNLGEESLQGELRWKAEKAPSSQSWITFSLKNQKVSVQKSTSNPKFQLSETLPLTLQIPQVSLQFAGSGNLTLTLDRGILYQEVNLVVMKVTQPDSNTLTCEVMGPTSPKMRLILKQENQEARVSRQEKVIQVQAPEAGVWQCLLSEGEEVKMDSKIQVLSKGLNSGGGSGGGTGGGDLAPQMLRELQETNAALQDVRELLRQQVKEITFLKNTVMECDACGLDRNLPPLAPLGPHPETLVKVKDAEDQLGARVGYIELDLNSGKILESFRPEERFPMMSTFKVLLCGAVLSRIDAGQEQLGRRIHYSQNDLVEYSPVTEKHLTDGMTVRELCSAAITMSDNTAANLLLTTIGGPKELTAFLHNMGDHVTRLDRWEPELNEAIPNDERDTTMPVAMATTLRKLLTGELLTLASRQQLIDWMEADKVAGPLLRSALPAGWFIADKSGAGERGSRGIIAALGPDGKPSRIVVIYTTGSQATMDERNRQIAEIGASLIKHW"}},
  "test_in_all_cases": "glycan array binding signal (z-score within array); higher = stronger binding",
  "conditions_in_all_cases": "glycan notation: IUPAC condensed, linker removed",
  "key": {"Gal(b1-4)Glc": {"target": "Gal(b1-4)Glc", "method_in_brief": "(§1)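 Glycan array binding is given as a within-array Z-score, which can be read as non-binding when negative. The arrays, 3228 of them, came from the Consortium for Functional Glycomics database and were retained only where the protein sequence was available. Z-scores were averaged across arrays of the same protein sequence at different concentrations or buffers and across linkers.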"}, "Gal(b1-4)Glc6S": {"target": "Gal(b1-4)Glc6S", "method_in_brief": "as §1"}, "Gal(b1-4)GlcNAc": {"target": "Gal(b1-4)GlcNAc", "method_in_brief": "as §1"}, "[1]": {"target": "Gal(b1-4)GlcNAc(a1-6)Gal(b1-4)GlcNAc", "method_in_brief": "as §1"}, "Gal(b1-4)GlcNAc(b1-2)Man": {"target": "Gal(b1-4)GlcNAc(b1-2)Man", "method_in_brief": "as §1"}, "[2]": {"target": "Gal(b1-4)GlcNAc(b1-2)Man(a1-3)Man(b1-4)GlcNAc(b1-4)GlcNAc", "method_in_brief": "as §1"}, "[3]": {"target": "Gal(b1-4)GlcNAc(b1-2)Man(a1-3)[Gal(b1-4)GlcNAc(b1-2)Man(a1-6)]Man(b1-4)GlcNAc(b1-4)GlcNAc", "method_in_brief": "as §1"}, "[4]": {"target": "Gal(b1-4)GlcNAc(b1-2)Man(a1-3)[Gal(b1-4)GlcNAc(b1-2)Man(a1-6)]Man(b1-4)GlcNAc(b1-4)[Fuc(a1-6)]GlcNAc", "method_in_brief": "as §1"}, "[5]": {"target": "Gal(b1-4)GlcNAc(b1-2)Man(a1-3)[Gal(b1-4)GlcNAc(b1-2)Man(a1-6)][Gal(b1-4)GlcNAc(b1-4)]Man(b1-4)GlcNAc(b1-4)[Fuc(a1-6)]GlcNAc", "method_in_brief": "as §1"}, "[6]": {"target": "Gal(b1-4)GlcNAc(b1-2)Man(a1-3)[Gal(b1-4)GlcNAc(b1-2)Man(a1-6)][GlcNAc(b1-4)]Man(b1-4)GlcNAc(b1-4)[Fuc(a1-6)]GlcNAc", "method_in_brief": "as §1"}, "[7]": {"target": "Gal(b1-4)GlcNAc(b1-2)Man(a1-3)[GlcNAc(b1-2)Man(a1-6)]Man(b1-4)GlcNAc(b1-4)GlcNAc", "method_in_brief": "as §1"}, "[8]": {"target": "Gal(b1-4)GlcNAc(b1-2)Man(a1-3)[GlcNAc(b1-4)][Gal(b1-4)GlcNAc(b1-2)Man(a1-6)]Man(b1-4)GlcNAc(b1-4)GlcNAc", "method_in_brief": "as §1"}, "[9]": {"target": "Gal(b1-4)GlcNAc(b1-2)Man(a1-3)[Man(a1-6)]Man(b1-4)GlcNAc(b1-4)GlcNAc", "method_in_brief": "as §1"}, "[10]": {"target": "Gal(b1-4)GlcNAc(b1-2)Man(a1-6)Man(b1-4)GlcNAc(b1-4)GlcNAc", "method_in_brief": "as §1"}, "[11]": {"target": "Gal(b1-4)GlcNAc(b1-2)Man(a1-6)[GlcNAc(b1-2)Man(a1-3)]Man(b1-4)GlcNAc(b1-4)GlcNAc", "method_in_brief": "as §1"}, "[12]": {"target": "Gal(b1-4)GlcNAc(b1-2)Man(a1-6)[Man(a1-3)]Man(b1-4)GlcNAc(b1-4)GlcNAc", "method_in_brief": "as §1"}, "[13]": {"target": "Gal(b1-4)GlcNAc(b1-2)[Gal(b1-4)GlcNAc(b1-4)]Man(a1-3)[Gal(b1-4)GlcNAc(b1-2)Man(a1-6)]Man(b1-4)GlcNAc(b1-4)GlcNAc", "method_in_brief": "as §1"}, "[14]": {"target": "Gal(b1-4)GlcNAc(b1-2)[Gal(b1-4)GlcNAc(b1-4)]Man(a1-3)[Gal(b1-4)GlcNAc(b1-2)[Gal(b1-4)GlcNAc(b1-6)]Man(a1-6)]Man(b1-4)GlcNAc(b1-4)GlcNAc", "method_in_brief": "as §1"}, "[15]": {"target": "Gal(b1-4)GlcNAc(b1-2)[Gal(b1-4)GlcNAc(b1-4)]Man(a1-3)[GlcNAc(b1-4)][Gal(b1-4)GlcNAc(b1-2)Man(a1-6)]Man(b1-4)GlcNAc(b1-4)GlcNAc", "method_in_brief": "as §1"}, "[16]": {"target": "Gal(b1-4)GlcNAc(b1-2)[Gal(b1-4)GlcNAc(b1-4)]Man(a1-3)[GlcNAc(b1-4)][Gal(b1-4)GlcNAc(b1-2)[Gal(b1-4)GlcNAc(b1-6)]Man(a1-6)]Man(b1-4)GlcNAc(b1-4)GlcNAc", "method_in_brief": "as §1"}, "[17]": {"target": "Gal(b1-4)GlcNAc(b1-2)[Gal(b1-4)GlcNAc(b1-6)]Man(a1-6)[Gal(b1-4)GlcNAc(b1-2)Man(a1-3)]Man(b1-4)GlcNAc(b1-4)GlcNAc", "method_in_brief": "as §1"}, "[18]": {"target": "Gal(b1-4)GlcNAc(b1-2)[Gal(b1-4)GlcNAc(b1-6)]Man(a1-6)[Gal(b1-4)GlcNAc(b1-2)Man(a1-3)]Man(b1-4)GlcNAc(b1-4)[Fuc(a1-6)]GlcNAc", "method_in_brief": "as §1"}, "[19]": {"target": "Gal(b1-4)GlcNAc(b1-2)[Gal(b1-4)GlcNAc(b1-6)]Man(a1-6)[GlcNAc(b1-4)][Gal(b1-4)GlcNAc(b1-2)Man(a1-3)]Man(b1-4)GlcNAc(b1-4)GlcNAc", "method_in_brief": "as §1"}, "[20]": {"target": "Gal(b1-4)GlcNAc(b1-2)[Gal(b1-4)GlcNAc(b1-6)]Man(a1-6)[GlcNAc(b1-4)][Gal(b1-4)GlcNAc(b1-2)[Gal(b1-4)GlcNAc(b1-4)]Man(a1-3)]Man(b1-4)GlcNAc(b1-4)[Fuc(a1-6)]GlcNAc", "method_in_brief": "as §1"}, "[21]": {"target": "Gal(b1-4)GlcNAc(b1-3)Gal(b1-3)GalNAc", "method_in_brief": "as §1"}, "[22]": {"target": "Gal(b1-4)GlcNAc(b1-3)Gal(b1-3)GlcNAc", "method_in_brief": "as §1"}, "[23]": {"target": "Gal(b1-4)GlcNAc(b1-3)Gal(b1-4)Glc", "method_in_brief": "as §1"}, "[24]": {"target": "Gal(b1-4)GlcNAc(b1-3)Gal(b1-4)GlcNAc", "method_in_brief": "as §1"}, "[25]": {"target": "Gal(b1-4)GlcNAc(b1-3)Gal(b1-4)GlcNAc(b1-2)Man(a1-3)[Gal(b1-4)GlcNAc(b1-3)Gal(b1-4)GlcNAc(b1-2)Man(a1-6)]Man(b1-4)GlcNAc(b1-4)GlcNAc", "method_in_brief": "as §1"}, "[26]": {"target": "Gal(b1-4)GlcNAc(b1-3)Gal(b1-4)GlcNAc(b1-2)Man(a1-3)[Gal(b1-4)GlcNAc(b1-3)Gal(b1-4)GlcNAc(b1-2)Man(a1-6)]Man(b1-4)GlcNAc(b1-4)[Fuc(a1-6)]GlcNAc", "method_in_brief": "as §1"}},
  "note": "Some of the results follow.",
  "data": [
    {"binder": "B1", "values": [
      {"measurement": "glycan array binding signal (z-score)", "setting": "Gal(b1-4)Glc", "result": 0.549},
      {"measurement": "glycan array binding signal (z-score)", "setting": "Gal(b1-4)Glc6S", "result": 0.883},
      {"measurement": "glycan array binding signal (z-score)", "setting": "Gal(b1-4)GlcNAc", "result": -0.956},
      {"measurement": "glycan array binding signal (z-score)", "setting": "[1]", "result": -0.407},
      {"measurement": "glycan array binding signal (z-score)", "setting": "Gal(b1-4)GlcNAc(b1-2)Man", "result": -0.294},
      {"measurement": "glycan array binding signal (z-score)", "setting": "[2]", "result": -1},
      {"measurement": "glycan array binding signal (z-score)", "setting": "[3]", "result": 0.135},
      {"measurement": "glycan array binding signal (z-score)", "setting": "[4]", "result": 1.38},
      {"measurement": "glycan array binding signal (z-score)", "setting": "[5]", "result": 1.09},
      {"measurement": "glycan array binding signal (z-score)", "setting": "[6]", "result": -0.791},
      {"measurement": "glycan array binding signal (z-score)", "setting": "[7]", "result": -1.32},
      {"measurement": "glycan array binding signal (z-score)", "setting": "[8]", "result": -0.472},
      {"measurement": "glycan array binding signal (z-score)", "setting": "[9]", "result": 1.82},
      {"measurement": "glycan array binding signal (z-score)", "setting": "[10]", "result": 0.125},
      {"measurement": "glycan array binding signal (z-score)", "setting": "[11]", "result": -0.524},
      {"measurement": "glycan array binding signal (z-score)", "setting": "[12]", "result": -1.67},
      {"measurement": "glycan array binding signal (z-score)", "setting": "[13]", "result": -0.405},
      {"measurement": "glycan array binding signal (z-score)", "setting": "[14]", "result": 1.14},
      {"measurement": "glycan array binding signal (z-score)", "setting": "[15]", "result": -1.1},
      {"measurement": "glycan array binding signal (z-score)", "setting": "[16]", "result": -1.4},
      {"measurement": "glycan array binding signal (z-score)", "setting": "[17]", "result": 0.078},
      {"measurement": "glycan array binding signal (z-score)", "setting": "[18]", "result": -0.942},
      {"measurement": "glycan array binding signal (z-score)", "setting": "[19]", "result": -0.624},
      {"measurement": "glycan array binding signal (z-score)", "setting": "[20]", "result": 1.59},
      {"measurement": "glycan array binding signal (z-score)", "setting": "[21]", "result": 3.12},
      {"measurement": "glycan array binding signal (z-score)", "setting": "[22]", "result": -1.02},
      {"measurement": "glycan array binding signal (z-score)", "setting": "[23]", "result": 0.472},
      {"measurement": "glycan array binding signal (z-score)", "setting": "[24]", "result": -0.847},
      {"measurement": "glycan array binding signal (z-score)", "setting": "[25]", "result": 1.52},
      {"measurement": "glycan array binding signal (z-score)", "setting": "[26]", "result": 2.88}
    ]}
  ]
}
